In CN114853902A:
No constants are given. Whether binding was seen depends on the method and setting. Some results given as binding are weak or reduced against the parent protein; the word gives no strength.

Chains of the proteins cited; added tags and fusions are not shown.
UniProt Q9NZQ7: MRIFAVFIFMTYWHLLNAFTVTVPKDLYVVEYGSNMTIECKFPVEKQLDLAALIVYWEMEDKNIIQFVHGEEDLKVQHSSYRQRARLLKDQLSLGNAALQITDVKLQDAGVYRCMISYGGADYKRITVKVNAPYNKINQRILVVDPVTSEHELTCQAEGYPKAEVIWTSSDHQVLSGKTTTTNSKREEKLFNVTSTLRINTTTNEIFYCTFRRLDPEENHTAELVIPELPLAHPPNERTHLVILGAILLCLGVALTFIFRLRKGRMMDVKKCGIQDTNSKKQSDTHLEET

Molecular target: PD-L1 (antigen of the scFv screening) (UniProt Q9NZQ7)
Assay: screening of scFv against PD-L1 (method not described)

binding: binds
B1: PD-L1 scFv抗体 (SEQ ID No.1) (scFv)
scFv: EVKLQESGPSLVRPGASVKISCKASAYSFTSYWMHWVKQRPGQGLDWIGMIDPSDSEARLNQKFKDKATLTVDKSSSTTYIHLSSPTSEDSAVYYCARSYGYDGDYYLDVWGAGTTVTVSSGGGSGGGSGGGSGGGSDIVMTQSPSSLSASLGGKVTITCKASQDINKYIAWYQHKPGKGPRLLIQYTSTLQPGIPSRFSGSGSGRDYSFSISNLEPEDIATYYCLQYDYLRTFGGGTKLEIK
